Test results as given in patent US20100048713A1, “COMPOUNDS ACTING ON THE SEROTONIN TRANSPORTER” (Aarhus Universitet, priority 2006, published 2010).

The chains behind the UniProt entries cited, without tags or fusion partners.
UniProt P31645, whole entry: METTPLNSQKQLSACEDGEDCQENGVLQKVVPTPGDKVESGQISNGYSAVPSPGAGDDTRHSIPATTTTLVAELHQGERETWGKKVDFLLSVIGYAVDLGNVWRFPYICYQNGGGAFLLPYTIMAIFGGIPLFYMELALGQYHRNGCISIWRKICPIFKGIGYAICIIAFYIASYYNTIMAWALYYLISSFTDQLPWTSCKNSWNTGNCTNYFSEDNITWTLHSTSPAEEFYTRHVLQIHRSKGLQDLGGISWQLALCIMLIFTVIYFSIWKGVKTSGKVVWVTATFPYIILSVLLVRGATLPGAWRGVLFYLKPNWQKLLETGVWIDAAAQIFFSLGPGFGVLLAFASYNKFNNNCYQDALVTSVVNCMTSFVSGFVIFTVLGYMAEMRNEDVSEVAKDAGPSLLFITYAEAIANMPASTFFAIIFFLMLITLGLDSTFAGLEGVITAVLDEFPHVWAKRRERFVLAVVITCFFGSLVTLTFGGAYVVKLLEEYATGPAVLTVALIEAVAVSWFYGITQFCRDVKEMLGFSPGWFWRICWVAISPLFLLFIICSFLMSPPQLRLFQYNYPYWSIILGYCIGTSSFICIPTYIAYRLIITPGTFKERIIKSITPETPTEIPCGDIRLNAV

Tests used:
[1] = target: T1, hSERT (Homo sapiens, UniProt P31645); assay: Binding assay on whole cells transfected with hSERT ([3H]-citalopram displacement); settings: whole cell assay, 35 nM [3H]-citalopram, 60 min room temperature; table title: 45 min preincubation
T1 construct: expressed in transfected cells; the general 96-well protocol names Cos-1
Description: The pcDNA3 plasmid vector containing the hSERT gene was used for transfection (see FIG. 6).
(§1) The 96-well plate was washed with PBSCM to remove DMEM prior to the assay. […] The plate was subsequently incubated for 60 min at room temperature. The assay was terminated by washing once with PBSCM. The amount of accumulated [^3H]-citalopram was determined by solubilizing cells in scintillant (MicroScint 20) with direct counting of plates in a Packard TopCounter. Data was analyzed by GraphPad software.

[2] = target: T1, hSERT; assay: 5-HT uptake assay with preincubation (whole cells); format: cell-based
Description: 7 μl Fugene-6 was mixed with 112 μl Dulbecco's modified Eagle's medium, and incubated at room temperature for 5 minutes. 4 μg of plasmid were added and the mixture was further incubated at least 15 minutes. Cos-1 cells were trypsinized and suspended in growth media, and the plasmid/Fugene-6 mixture was added followed by dispersion into a 96-well plate.
as §1, with “assay. 50 μl PBSCM containing increasing concentrations of allosteric ligand were added to each well, and incubated for 60 min at room temperature under moderate agitation.” for “assay.”, “10” for “60”, “[^3H]-5-HT” for “[^3H]-citalopram”
We tested the allosteric ligands for their ability to inhibit/activate 5-HT-uptake in the whole-cell assay after 60 minutes preincubation.

EC50 [1]: > 2000 µM | effect on [3H]-5-HT uptake after preincubation (FIG. 4) ([2]; hSERT expressing cells, 60 minutes incubation at room temperature): inhibits [^3H]-5-HT uptake | IC50 ([2]; whole cell assay with preincubation (title 45 min, text 60 min), 75 nM [3H]-5-HT, 10 min): 97.7 µM
Compound: O=C(O)c1cccc2cccc([N+](=O)[O-])c12 [TS24]
